Reference: publication PMC5615345 (2017)
No constants are given. Whether binding was seen depends on the method and setting. Where a sequence is shown, tags or fusion partners need not be part of it.

Key:
[1] = molecular target: T1, Methanocaldococcus jannaschii RecJ1 (MJ0977) (Methanocaldococcus jannaschii) (UniProt Q58387); assay: pull-down; purified 6×His-RecJ mixed with His-tag-free GINS in a molecular ratio of 1:2, 37 °C for 30 min; Ni-NTA resin, washed, eluted with 200 mM imidazole; eluates on 15% SDS-PAGE; both purified
T1 sequence: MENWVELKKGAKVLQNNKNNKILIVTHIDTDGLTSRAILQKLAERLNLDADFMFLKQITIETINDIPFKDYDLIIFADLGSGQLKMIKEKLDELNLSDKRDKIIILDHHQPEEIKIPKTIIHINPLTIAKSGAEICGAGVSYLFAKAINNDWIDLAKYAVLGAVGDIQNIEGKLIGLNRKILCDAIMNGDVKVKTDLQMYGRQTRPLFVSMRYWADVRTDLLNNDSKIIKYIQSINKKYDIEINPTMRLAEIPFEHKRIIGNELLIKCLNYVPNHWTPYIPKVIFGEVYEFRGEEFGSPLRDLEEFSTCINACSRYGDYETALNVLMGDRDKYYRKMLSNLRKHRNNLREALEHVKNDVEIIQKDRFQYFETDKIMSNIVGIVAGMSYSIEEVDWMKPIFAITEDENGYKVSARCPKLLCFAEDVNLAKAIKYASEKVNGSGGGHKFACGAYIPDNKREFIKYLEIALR

[2] = molecular target: T2, Methanocaldococcus jannaschii RecJ2 (MJ0831) (Methanocaldococcus jannaschii) (UniProt Q58241); assay: as above
T2 sequence: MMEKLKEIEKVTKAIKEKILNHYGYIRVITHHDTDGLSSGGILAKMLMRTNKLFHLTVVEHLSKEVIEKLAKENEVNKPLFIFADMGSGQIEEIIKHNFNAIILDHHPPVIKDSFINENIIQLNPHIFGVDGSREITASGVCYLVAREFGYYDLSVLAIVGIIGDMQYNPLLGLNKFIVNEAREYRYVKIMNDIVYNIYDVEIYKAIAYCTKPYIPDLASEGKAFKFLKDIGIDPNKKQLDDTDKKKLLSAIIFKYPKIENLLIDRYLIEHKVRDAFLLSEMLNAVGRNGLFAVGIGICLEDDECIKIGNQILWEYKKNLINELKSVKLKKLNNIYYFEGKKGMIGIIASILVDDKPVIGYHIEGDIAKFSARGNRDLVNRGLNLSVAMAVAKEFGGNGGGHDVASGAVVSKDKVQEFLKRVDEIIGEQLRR

B1: Methanocaldococcus jannaschii GINS (MJ0248), 6×His tag and sumo domain removed (protein)
chain: MRVFIIIIYFRCFSKDHKPYFVITMYESLKNYFFEEIKNDKLLKLPDDFYDDIREYIKNIKDDIELERVKYYFKELRKLRIYKALYLDNERENLLPEELNIIHAIENIVVELKIEETPEFKKPTEIDTPKPIYTINDIDVVKVDKNFPPFTDGTFIYDLNKNDVLSLDRKISHILEKHRIISRIGESYENPEES
Q: For B1, which binding [1] is on record?
A: The binding was “no binding”.

Q: And the binding [2]?
A: The binding was “no binding”.
